Experimental data taken from US20230165970A1, “COMPOSITIONS AND METHODS FOR THE TREATMENT OF BACTERIAL INFECTIONS” (priority 2017, published 2023).
At least one peptide structure holds a part that was inferred or is arguable (an end, a ring closure or a residue). *1 amine or outer side, *2 acyl side, *3 side chain or, on linkers, in order; H or OH if unused. Where a SMILES comes first, the peptide text is derived from it. Bridges are numbered along the chain shown (N, C = ends). [ ]: non-standard residue; d: D form. The star is where a group is joined. Propargyl(OCH2CH2)4CO = C#CCOCCOCCOCCOCCC(=O)*; X1 = CCCCCC[C@@H](O)[C@H](N[*:1])C(=O)[*:2]; dCha = N[C@H](CC1CCCCC1)C(=O)O; Dab = NCC[C@H](N)C(=O)O; azaGly = NNC(=O)O

Assays:
E. coli 25922 = details: (A) Bacteremia (E. coli); 10 mg/kg IV, single, +1 hr; survival after three days; N=3
Method: In vivo screening of selected compounds was accomplished in an E. coli bacteremia model (N=3). Efficacy was assessed in an animal model of infection using CD-1 mice by evaluating bacteremia in immune competent mice challenged with 2× the LD95 of E. coli 25922 (dosed qd, intraperitoneally (IP) at T+1 hour, survival endpoint).
Colistin (COL) and Int-17 were dosed at 0.3 mg/kg and Int-41 was dosed at 3.0 mg/kg. Percent survival was determined 72 hours after bacterial challenge. Compounds with MICs against E. coli 25922 of less than 4 μg/ml were evaluated in the bacteremia model.
Int-115 and Int-118 were evaluated for potency in a lethal model of bacteremia. […] Test articles were dissolved in 1× PBS and injected IV at a dose volume of 10 ml/kg one hour following bacterial challenge. Animals were monitored twice daily and mortality scored over three days.
CD-1 mice were used for bacteremia, C57BL/6J mice for endotoxemia. The endpoint was survival after three days for both models.

A. baumannii AB5075 = test: Murine pneumonia model vs. A. baumannii AB5075 (survival); type: in vivo, C57BI/6J mice; details: 10 mg/kg IV twice at t=+1 h and +4 h; 1×10^8 CFU; n=5 (FIG. 119)
Method: The murine pneumonia model was adapted from Lin et al., 2015 (PMID: 26288841). A. baumannii AB5075 was grown to log-phase in LB at 37° C., 200 rpm shaking. Bacteria were washed once with PBS via centrifugation at 4,000 rpm. Bacteria were adjusted to the desired concentration in PBS.
Prior to infection, 8-week-old female C57BI/6J mice (Jackson Labs) were anesthetized with 100 mg/kg ketamine and 10 mg/kg xylazine. Using an otoscope, mice were infected non-invasively directly into the trachea.
Mice were infected with 5×10^7 CFU in 30 μL of PBS. Mice were treated intraperitoneally with different doses of conjugate 23 or hIgG1 (50 mpk) at t=−12 h pre-infection and t=+1 h post-infection or with colistin (10 mpk) or PBS at t=+1 h, 5 h, 24 h, 36 h, 48 h and 60 h post-infection.
Survival of mice (n=5 per group) was monitored for 5 days. […] Colistin was used as positive control resulting in 80% protection.
The murine pneumonia model was adapted from Lin et al., 2015 (PMID: 26288841). A. baumannii AB5075 was grown to log-phase in LB at 37° C., 200 rpm shaking. Bacteria were washed once with PBS via centrifugation at 4,000 rpm. Bacteria were adjusted to the desired concentration in PBS. […]
Survival of mice (n=4 per group) was monitored for 5 days. […]
The survival (n=5 per group) was monitored twice daily for 5 days. […]

C#CCOCCOCCOCCOCCC(=O)N[C@@H](CCN)C(=O)N[C@H](C(=O)NNC(=O)N[C@H]1CCNC(=O)[C@H]([C@@H](C)O)NC(=O)[C@H](CCN)NC(=O)[C@H](CCN)NC(=O)[C@H](CC(C)C)NC(=O)[C@@H](CC2CCCCC2)NC(=O)[C@H](CCN)NC1=O)[C@H](O)CCCCCC [Int-115] ({Propargyl(OCH2CH2)4CO}-[Dab][X1][azaGly][Dab][Dab][dCha]L[Dab][Dab]T; lactam 4-C)
% survival (E. coli 25922): 100%
survival (monitored 5 days) (A. baumannii AB5075): delay death of all mice until day 4 post-infection
